Measured values as given in patent US12496272B1, “Stable epinephrine suspension formulation for inhalation with HFO propellant” (Amphastar Pharmaceuticals, Inc., priority 2024, dated 2025).

Assay: Environmental properties of HFA and HFO propellants

## F/C=C/C(F)(F)F [HFO-1234ze(E), trans-1,3,3,3-tetrafluoropropene]
6 versus 1300
  GWP times lower than that of HFA-134a: approximately 200 times
6 versus 2900
  GWP times lower than that of HFA-227: approximately 500 times
